Results taken from US7045361B2, “Analyte sensing via acridine-based boronate biosensors” (Medtronic MiniMed, Inc., priority 2001, dated 2006).

Assay: Glucose transduction of monotopic acridine-based boronate biosensor molecules by fluorescence spectroscopy
Description: Glucose transduction of particular acridine-based boronate bio sensor molecules was observed using fluorescence spectroscopy. Fluorescence measurements were taken on a Yorbin Fluorolog instrument. […]
Aliquots of glucose were added and responses were measured at 436 nm, or maximum intensity. (See Table 3).
Another transduction experiment was performed with ACRAB at 500 nm, or approximately 25% of the value of maximum intensity. The data taken at 500 nm generally parallel those taken at 436 nm, thus indicating no decrease in performance of the acridine-based boronate biosensor molecule at the longer wavelength. This shift of 83 nm is very significant in that it provides about a 10-fold increase of transmission of light through tissue and skin.
MEACRAB was then diluted 100-fold to 100 nM and transduction at conditions of ambient temperature. The solution contained 0.5% DMSO.

aminomethylhydroxypentyl-acridine boronate [ACRAB]
Intensity (500 nm, glucose 0 mg/dL): 98.4 cps × 10^3
Intensity (500 nm, glucose 49 mg/dL): 109.5 cps × 10^3
Intensity (500 nm, glucose 149 mg/dL): 122.0 cps × 10^3
Intensity (500 nm, glucose 198 mg/dL): 134.8 cps × 10^3
Intensity (500 nm, glucose 284 mg/dL): 144.8 cps × 10^3
Intensity (500 nm, glucose 374 mg/dL): 153.9 cps × 10^3
Intensity (500 nm, glucose 441 mg/dL): 159.7 cps × 10^3
Intensity (500 nm, glucose 559 mg/dL): 164.7 cps × 10^3
Intensity (approx 10 μM, PBS pH 7.4, 0.5% DMSO, 436 nm, glucose 0 mg/dL): 260.2 cps × 10^3
Intensity (approx 10 μM, PBS pH 7.4, 0.5% DMSO, 436 nm, glucose 50 mg/dL): 298.7 cps × 10^3
Intensity (approx 10 μM, PBS pH 7.4, 0.5% DMSO, 436 nm, glucose 150 mg/dL): 329.5 cps × 10^3
Intensity (approx 10 μM, PBS pH 7.4, 0.5% DMSO, 436 nm, glucose 200 mg/dL): 368 cps × 10^3
Intensity (approx 10 μM, PBS pH 7.4, 0.5% DMSO, 436 nm, glucose 300 mg/dL): 384.4 cps × 10^3

Cc1ccc2nc3ccccc3c(CN(CCCCCO)Cc3ccccc3B(O)O)c2c1 [MEACRAB, aminomethylhydroxypentyl-methylacridine boronate]
Intensity (100 nM, 0.5% DMSO, ambient temperature, 509 nm, glucose 0 mg/dL): 62 cps × 10^4
Intensity (100 nM, 0.5% DMSO, ambient temperature, 509 nm, glucose 87 mg/dL): 75 cps × 10^4
Intensity (100 nM, 0.5% DMSO, ambient temperature, 509 nm, glucose 173 mg/dL): 80 cps × 10^4
Intensity (100 nM, 0.5% DMSO, ambient temperature, 509 nm, glucose 256 mg/dL): 95 cps × 10^4
Intensity (100 nM, 0.5% DMSO, ambient temperature, 509 nm, glucose 341 mg/dL): 110 cps × 10^4
Intensity (100 nM, 0.5% DMSO, ambient temperature, 509 nm, glucose 425 mg/dL): 120 cps × 10^4
Intensity (100 nM, 0.5% DMSO, ambient temperature, 509 nm, glucose 510 mg/dL): 130 cps × 10^4
Intensity (100 nM, 0.5% DMSO, ambient temperature, 509 nm, glucose 603 mg/dL): 135 cps × 10^4
Intensity (100 nM, 0.5% DMSO, ambient temperature, 509 nm, glucose 683 mg/dL): 137 cps × 10^4
Intensity (100 nM, 0.5% DMSO, ambient temperature, 509 nm, glucose 767 mg/dL): 140 cps × 10^4
Intensity (100 nM, 0.5% DMSO, ambient temperature, 509 nm, glucose 834 mg/dL): 145 cps × 10^4
Intensity (100 nM, 0.5% DMSO, ambient temperature, 509 nm, glucose 927 mg/dL): 150 cps × 10^4
Intensity (100 nM, 0.5% DMSO, ambient temperature, 509 nm, glucose 1012 mg/dL): 160 cps × 10^4
Intensity (10 μM in PBS, 4% DMSO, 500 nm, glucose 0 mg/dL): 100 cps × 10^3
Intensity (10 μM in PBS, 4% DMSO, 500 nm, glucose 93 mg/dL): 130 cps × 10^3
Intensity (10 μM in PBS, 4% DMSO, 500 nm, glucose 184 mg/dL): 160 cps × 10^3
Intensity (10 μM in PBS, 4% DMSO, 500 nm, glucose 275 mg/dL): 200 cps × 10^3
Intensity (10 μM in PBS, 4% DMSO, 500 nm, glucose 364 mg/dL): 220 cps × 10^3
Intensity (10 μM in PBS, 4% DMSO, 500 nm, glucose 459 mg/dL): 270 cps × 10^3
Intensity (10 μM in PBS, 4% DMSO, 500 nm, glucose 547 mg/dL): 290 cps × 10^3
Intensity (10 μM in PBS, 4% DMSO, 500 nm, glucose 650 mg/dL): 320 cps × 10^3
